Results as given in US20240076412A1 (NATIONAL INSTITUTE OF BIOLOGICAL SCIENCES BEIJING, published 2024).
Results are given in words; binding and its absence hold for the method and conditions named. Some entries that bind do so weakly or less than the wild type. Blank lines part the entries; values can stand above or below the binder they belong to.

Protein sequences, listed by entry. Tags and fused reporters are not part of them. Lines headed by an entry give the natural chain unless they say otherwise; changes in a name come on top. Chains listed by the source or under a name are the forms on record and can include a tag or linker. Residues count along the entry.
hGPC3-ΔHS (P51654, form named): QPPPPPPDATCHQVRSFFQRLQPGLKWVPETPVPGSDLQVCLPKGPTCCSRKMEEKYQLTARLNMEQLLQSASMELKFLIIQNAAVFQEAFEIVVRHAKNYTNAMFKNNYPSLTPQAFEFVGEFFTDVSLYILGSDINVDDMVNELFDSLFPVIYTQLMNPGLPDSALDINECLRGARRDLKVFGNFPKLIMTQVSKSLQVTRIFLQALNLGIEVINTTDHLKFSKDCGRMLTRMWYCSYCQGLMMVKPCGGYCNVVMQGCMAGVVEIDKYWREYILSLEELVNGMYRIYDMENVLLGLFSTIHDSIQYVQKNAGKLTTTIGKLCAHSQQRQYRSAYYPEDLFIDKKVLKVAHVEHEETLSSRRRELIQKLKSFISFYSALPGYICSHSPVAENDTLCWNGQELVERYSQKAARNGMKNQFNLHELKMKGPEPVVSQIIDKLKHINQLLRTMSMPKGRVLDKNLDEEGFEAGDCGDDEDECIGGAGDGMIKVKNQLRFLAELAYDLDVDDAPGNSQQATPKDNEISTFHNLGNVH
UniProt Q08722, residues 19-139: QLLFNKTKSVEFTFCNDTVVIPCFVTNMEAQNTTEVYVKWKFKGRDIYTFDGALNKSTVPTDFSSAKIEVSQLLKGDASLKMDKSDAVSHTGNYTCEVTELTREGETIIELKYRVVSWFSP

Assays:
[1] = target: T1, hGPC3-ΔHS (human, UniProt P51654 25-559, limits assumed); experiment: SPR, antibody captured by anti-human Fc antibodies on CM5 chip, hGPC3 injected first, then hCD47
T1 construct: also called hGPC3-ΔHS protein

[2] = target: T1, hGPC3-ΔHS; experiment: SPR (Biacore T200), IgG1 captured on protein A/G, hGPC3-ΔHS as analyte (FIG. 11C)
[3] = target: T2, hCD47 protein (SPR analyte of Example 2) (human, UniProt Q08722 19-139, limits assumed); experiment: SPR (Biacore T200), IgG1 captured on protein A/G, hCD47 protein as analyte (FIG. 11C)
[4] = target: T2, hCD47 protein (SPR analyte of Example 2); experiment: SPR, antibody captured by anti-human Fc antibodies on CM5 chip, hGPC3 injected first, then hCD47

binding [1]: binds
binding [2]: binds
B1: GC33 (Codrituzumab), human IgG1 (antibody, V domains shown)
VH: QVQLVQSGAEVKKPGASVKVSCKASGYTFTDYEMHWVRQAPGQGLEWMGALDPKTGDTAYSQKFKGRVTLTADESTSTAYMELSSLRSEDTAVYYCTRFYSYTYWGQGTLVTVSS
VL: DVVMTQSPLSLPVTPGEPASISCRSSQSLVHSNANTYLHWYLQKPGQSPQLLIYKVSNRFSGVPDRFSGSGSGTDFTLKISRVEAEDVGVYYCSQNTHVPPTFGQGTKLEIK
notes: also called anti-GPC3 mAb

binding [3]: binds
binding [4]: binds
B2: BC18 full-length human IgG1 (antibody, V domains shown)
VH: QVQLQQSGPGLVKPSETLSLTCTVSGDSINYHYWSWIRQPPGKGLEWIGYIYYSGSTTYNPSLKSRVTMSVDPSKNHFSLKLTSVTAADTALYFCARQRGAYDYWGQGTQVTVSS
VL: DIQLTQSPSSVSASVGDRVTIACRASQDIGSRLVWYQQRPGKAPKLLIYAASSLQSGVPSRFSGSGSGTDFTLTISSLQPEDFATYYCQQSYSTPYSFGQGTKLEIK
notes: also called anti-CD47 mAb; parental anti-CD47 mAb
